According to PubChem BioAssay AID1671190 (National Center for Advancing Translational Sciences (NCATS), 2021):
Several values for one entry are separate records, joined by “and”; a condition that tells them apart may be missing. Equal entries are not always repeated. The campaign covered roughly 580,000 compounds. About 6,100 (1.1%) were called active. Inconclusive means that the source gave no clear call. Such entries were picked first, then a sample of the others. The call rests on the fitted dose curve; in most records, active means well fitted inhibition curve with a large enough effect; inconclusive means small, poorly fitted or top-dose-only effect, or another doubt; inactive means no such curve, though single readings can be large or run the other way. Potencies of inconclusive entries are doubtful fits and often do not repeat.

Amino acid sequences for entries named in this document (tags omitted).
UniProt P18054, whole entry, looked up: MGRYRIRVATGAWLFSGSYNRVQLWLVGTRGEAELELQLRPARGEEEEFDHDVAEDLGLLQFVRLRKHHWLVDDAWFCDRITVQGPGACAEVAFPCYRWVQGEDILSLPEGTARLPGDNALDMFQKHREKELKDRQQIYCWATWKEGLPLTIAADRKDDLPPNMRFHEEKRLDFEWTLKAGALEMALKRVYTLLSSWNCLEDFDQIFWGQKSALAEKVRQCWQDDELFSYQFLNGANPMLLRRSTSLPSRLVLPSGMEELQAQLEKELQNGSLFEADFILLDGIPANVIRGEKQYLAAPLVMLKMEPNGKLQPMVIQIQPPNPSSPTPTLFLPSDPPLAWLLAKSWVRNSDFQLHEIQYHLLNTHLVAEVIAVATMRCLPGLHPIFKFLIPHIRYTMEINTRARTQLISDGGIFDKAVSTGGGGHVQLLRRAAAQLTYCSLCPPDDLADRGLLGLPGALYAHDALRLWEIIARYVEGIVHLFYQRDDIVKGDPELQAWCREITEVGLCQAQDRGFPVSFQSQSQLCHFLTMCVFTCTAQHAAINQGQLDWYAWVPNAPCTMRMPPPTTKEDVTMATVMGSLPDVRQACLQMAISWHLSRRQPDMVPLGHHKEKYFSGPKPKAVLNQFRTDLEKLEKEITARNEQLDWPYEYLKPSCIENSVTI

molecular target: Polyunsaturated fatty acid lipoxygenase ALOX12 (Homo sapiens) (UniProt P18054); assay: Primary qHTS assay for inhibitors of human arachidonate 12S-lipoxygenase (ALOX12): Round 2; conditions: purified 12hLO, xylenol orange hydroperoxide absorbance; activity change, negative = inhibition: at 108 µM (top of the series) unless noted
Outline: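 Hydroperoxide product was detected by ferrous iron/xylenol orange as the 573 to 405 nm absorbance ratio. Arachidonic acid at 40 uM (final) was turned over for 30 min at room temperature by 150 nM human 12hLO, pH 7.0 Hepes buffer, after 15 min compound preincubation.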
On the % scale 0 is the no-effect control and ±100 the full control effect; potency means the concentration at half of the fitted maximal effect.

SMILES	activity change, negative = inhibition	Potency
CC(Oc1ccc(Br)cc1Cl)C(=O)Nc1ccncc1 (configuration not stated)	inactive: -8.16%	–
COc1ccccc1OCCn1c(=O)sc2ccccc21	inactive: -23.7%	–
COc1cc(C2Nc3ccc4ccccc4c3C3=C2C(=O)CC(C)(C)C3)ccc1OCC(=O)O (configuration not stated)	–	inconclusive: 44.7 µM [inhibitor, partial curve, poor fit]
CC(=O)OC(c1nc2ccccc2c(=O)n1C1CC2(OC1=O)c1ccccc1N1C(=O)C(C)(C)N(O)C12)C(C)C (configuration not stated)	–	inconclusive: 50.1 µM [inhibitor, partial curve, poor fit]
CC(=O)c1cc2c(cc1NC(=O)CN1CCCCCCC1)OCO2	–	inconclusive: 0.891 µM [inhibitor, full curve, poor fit]
Cc1ccc(NC(=O)CN2C(=O)NC(Cc3c[nH]c4ccccc34)C2=O)cc1S(=O)(=O)N1CCCCC1 (configuration not stated)	inactive: -11.6%	–
COc1ccc(S(=O)(=O)N(CC(=O)N2CCC(C(N)=O)CC2)c2ccccc2)cc1OC	–	inconclusive: 10 µM [inhibitor, partial curve, poor fit]
Cc1c(Cl)cccc1N/C(=N/S(=O)(=O)c1cccs1)c1ccccc1	–	inconclusive: 112 µM [inhibitor, single point]
CN(C(=O)CSc1cn(CC(=O)N2CCOCC2)c2ccccc12)c1ccccc1	–	inactive and inconclusive: 50.1 µM [inhibitor, partial curve, poor fit]
O=c1[nH]c2cc3c(cc2cc1CN(Cc1cccs1)Cc1nnnn1Cc1ccco1)OCCO3	–	inconclusive: 3.16 µM [inhibitor, full curve, poor fit]
Cn1c(C(=O)N2CCCC2)cc2c(=O)n(C)c3ccccc3c21	inactive: 427%	–
Cc1ccc(CSCCNC(=O)NNC(=O)c2ccc(C)cc2)cc1	–	inconclusive: 39.8 µM [inhibitor, single point]
CCCCn1c2ccc(F)cc2c2nnc(NN)nc21	–	inconclusive: 44.7 µM [inhibitor, partial curve, poor fit]
COc1ccc(NC(=O)C(NS(=O)(=O)c2cccs2)C(C)C)cc1Cl (configuration not stated)	–	inconclusive: 35.5 µM [inhibitor, partial curve, poor fit]
CC(=O)Oc1ccc(C(=O)[C@H]2[C@H]3C(=O)N(c4ccccc4)C(=O)[C@H]3[C@@H]3C=CC=NN32)cc1	–	inconclusive: 50.1 µM [inhibitor, partial curve, poor fit]
COc1cccc(Cn2c(=O)n(Cc3ccco3)c(=O)c3oc4ccccc4c32)c1	inactive: -16.1%	–
C[C@@H](NC(=O)NC1(c2ccccc2)CCOCC1)c1onc(-c2cccnc2)c1C(=O)O	–	inconclusive: 14.1 µM [inhibitor, full curve]
Nc1nc(NCCOCCO)nc(NCC2CCCO2)c1[N+](=O)[O-] (configuration not stated)	–	inconclusive: 112 µM [inhibitor, partial curve, poor fit]
CC(=O)N1CCCc2cc(S(=O)(=O)N3CCC(C(=O)NCc4cccc(C)c4)CC3)ccc21	inactive: -16.3%	–
O=C(COC(=O)c1ccccc1OCc1ccccc1)Nc1ccc(F)cc1	inactive: -6.27%	–
O=C1c2ccccc2NC(c2cccc(Br)c2)N1CCCN1CCOCC1 (configuration not stated)	inactive: 26.8%	–
O=C1C2C(C(=O)N1/N=C/c1cc([N+](=O)[O-])c(O)cc1O)C1C=CC2C12CC2 (configuration not stated)	–	inconclusive: 50.1 µM [inhibitor, partial curve, poor fit]
Cc1cccc(C(=O)Nc2nnc(SCC(=O)NCc3ccco3)s2)c1	inactive: 29.8%	–

SMILES	activity change, negative = inhibition	Potency
Cn1c(=S)c2[nH]c(SCCN)nc2n(C)c1=O	–	inconclusive: 39.8 µM [inhibitor, partial curve, poor fit]
CC=CCn1c(SCCCc2ccccc2)nc2c1c(=O)[nH]c(=O)n2C	–	inconclusive: 70.8 µM [inhibitor, partial curve, poor fit]
COC[C@@H]1CN(C(=O)CC(C)C)C[C@H]1c1nc(C)no1	inactive: 1.47%	–
Cc1cc(Br)ccc1NC(=S)Nc1cccc([N+](=O)[O-])c1	–	inconclusive: 44.7 µM [inhibitor, partial curve, poor fit]
Cc1ccc(OCC(=O)NC2CC(C)(C)NC(C)(C)C2)cc1C	inactive: 2.21%	–
CC(=O)CCc1ccc(OCCCCN2CCC(Cc3ccccc3)CC2)cc1	–	inconclusive: 39.8 µM [inhibitor, partial curve]
N#Cc1ccc(C(c2ccc(C#N)cc2)n2cncn2)cc1	–	inconclusive: 48.5 µM [inhibitor, single point]
Cc1ccc(NC(=O)Cn2nc(C)c3ccccc32)c(C)c1	–	inconclusive: 100 µM [inhibitor, single point]
O=C1NC(c2cccc(Br)c2)=N/C1=C\c1ccco1	–	active: 44.7 µM
CCOC(=O)C1=C(C)NC(=NC)SC1c1ccccc1 (configuration not stated)	inactive: -4.25%	–
CCOc1ccc(CN2CCCC23Cc2ccccc2CNC3=O)cc1 (configuration not stated)	inactive: 0.3% [at 6.33 µM]	–
O=c1c(-c2cc(F)cc(F)c2)nc2cncnc2n1Cc1ccccc1Cl	–	inconclusive: 89.1 µM [inhibitor, single point]
Cc1nn2c(c1-c1ccc(Cl)cc1)N=C(c1ccco1)CC2c1ccccc1 (configuration not stated)	–	inconclusive: 35.5 µM [inhibitor, partial curve]
COc1cccc2sc(NC(=O)c3ccc(Br)s3)nc12	inactive: 0%	–
CCCN(C(=O)c1noc2c1COc1ccc(C)cc1-2)c1ccc(Cl)c(Cl)c1	–	inconclusive: 56.2 µM [inhibitor, partial curve, poor fit]
CC(C)C(=O)Nc1nc2cc3c(cc2s1)OCO3	inactive: -2.19%	–
CC(O)[C@H](NC(=O)C1(c2ccccc2)CCN(C(=O)OC(C)(C)C)CC1)C(=O)O (some centres not stated)	–	inconclusive: 35.5 µM [inhibitor, partial curve, poor fit]
CCCCc1[nH]nc2c1C1(C(=O)Nc3ccccc31)C(C#N)=C(N)O2 (configuration not stated)	inactive: 12.2%	–
Cc1cc(Cl)ccc1-n1ncc2c(NCC3CCCO3)ncnc21 (configuration not stated)	–	inconclusive: 39.8 µM [inhibitor, partial curve, poor fit]
CNS(=O)(=O)c1cc(C(=O)NCc2ccc(-c3nc4ccccc4s3)o2)ccc1Cl	–	inconclusive: 39.8 µM [inhibitor, partial curve]
CCOc1cc(/C=C(\C#N)C(=O)Nc2cccc(C(=O)O)c2)ccc1OCc1ccccc1Cl	inactive: 3.07%	–
COc1ccccc1N1C(=O)C2CC(C)=C(C)CC2C1=O (configuration not stated)	inactive: 1.72%	–
COc1ccc([C@H]2Oc3cc(O)cc(O)c3C(=O)C2[C@@H]2C(=O)c3c(O)cc(O)cc3O[C@@H]2c2ccc(OC)cc2)cc1 (some centres not stated)	–	inconclusive: 25.1 µM [inhibitor, partial curve, poor fit]

Rewritten in markdown: 16 of the compounds above

| SMILES | activity change, negative = inhibition | Potency |
| --- | --- | --- |
| CCCCn1c2ccc(F)cc2c2nnc(NN)nc21 | – | inconclusive: 44.7 µM [inhibitor, partial curve, poor fit] |
| COc1ccc(NC(=O)C(NS(=O)(=O)c2cccs2)C(C)C)cc1Cl (configuration not stated) | – | inconclusive: 35.5 µM [inhibitor, partial curve, poor fit] |
| CC(=O)Oc1ccc(C(=O)[C@H]2[C@H]3C(=O)N(c4ccccc4)C(=O)[C@H]3[C@@H]3C=CC=NN32)cc1 | – | inconclusive: 50.1 µM [inhibitor, partial curve, poor fit] |
| COc1cccc(Cn2c(=O)n(Cc3ccco3)c(=O)c3oc4ccccc4c32)c1 | inactive: -16.1% | – |
| C[C@@H](NC(=O)NC1(c2ccccc2)CCOCC1)c1onc(-c2cccnc2)c1C(=O)O | – | inconclusive: 14.1 µM [inhibitor, full curve] |
| Nc1nc(NCCOCCO)nc(NCC2CCCO2)c1[N+](=O)[O-] (configuration not stated) | – | inconclusive: 112 µM [inhibitor, partial curve, poor fit] |
| CC(=O)N1CCCc2cc(S(=O)(=O)N3CCC(C(=O)NCc4cccc(C)c4)CC3)ccc21 | inactive: -16.3% | – |
| O=C(COC(=O)c1ccccc1OCc1ccccc1)Nc1ccc(F)cc1 | inactive: -6.27% | – |
| O=C1c2ccccc2NC(c2cccc(Br)c2)N1CCCN1CCOCC1 (configuration not stated) | inactive: 26.8% | – |
| O=C1C2C(C(=O)N1/N=C/c1cc([N+](=O)[O-])c(O)cc1O)C1C=CC2C12CC2 (configuration not stated) | – | inconclusive: 50.1 µM [inhibitor, partial curve, poor fit] |
| Cc1cccc(C(=O)Nc2nnc(SCC(=O)NCc3ccco3)s2)c1 | inactive: 29.8% | – |
| Cn1c(=S)c2[nH]c(SCCN)nc2n(C)c1=O | – | inconclusive: 39.8 µM [inhibitor, partial curve, poor fit] |
| CC=CCn1c(SCCCc2ccccc2)nc2c1c(=O)[nH]c(=O)n2C | – | inconclusive: 70.8 µM [inhibitor, partial curve, poor fit] |
| COC[C@@H]1CN(C(=O)CC(C)C)C[C@H]1c1nc(C)no1 | inactive: 1.47% | – |
| Cc1cc(Br)ccc1NC(=S)Nc1cccc([N+](=O)[O-])c1 | – | inconclusive: 44.7 µM [inhibitor, partial curve, poor fit] |
| Cc1ccc(OCC(=O)NC2CC(C)(C)NC(C)(C)C2)cc1C | inactive: 2.21% | – |

(further entries)

SMILES	activity change, negative = inhibition	Potency
COc1cc(NS(=O)(=O)c2ccc3[nH]c4c(c3c2)CCCCCC4)cc(OC)c1	–	inconclusive: 63.1 µM [inhibitor, partial curve, poor fit]
O=C(Nc1nn[nH]n1)C12CC3CC(CC(C3)C1)C2	–	inconclusive: 8.91 µM [inhibitor, full curve, poor fit]
O=C(NCc1cccnc1)C1CCC(=O)N1C1CCNCC1 (configuration not stated)	–	inconclusive: 14.1 µM [inhibitor, full curve, poor fit]
Cc1ccc2c(c1)N=C(c1ccccc1)CC(C(Cl)Cl)=N2	–	inconclusive: 5.62 µM [inhibitor, partial curve, poor fit]
COc1ccc(CCC(C)Nc2cccc(F)c2)cc1 (configuration not stated)	–	inconclusive: 7.08 µM [inhibitor, full curve]
Cc1ccc(NC(=O)CC(C)S(=O)(=O)c2ccc3c(c2)NC(=O)CO3)cc1Cl (configuration not stated)	–	inconclusive: 79.4 µM [inhibitor, partial curve, poor fit]
CCCCNc1c(-c2ccccn2)nc2nc(C)cc(C)n12	–	inconclusive: 35.5 µM [inhibitor, single point]
CCCC(=O)NC(NC(=S)Nc1ccc(S(N)(=O)=O)cc1)C(Cl)(Cl)Cl (configuration not stated)	inactive: -14.4%	–
CS(=O)(=O)Nc1cccc(-c2cc(Nc3ccccc3)ncn2)c1	–	inconclusive: 112 µM [inhibitor, partial curve, poor fit]
O=C(OCC(=O)c1ccc[nH]1)c1ccccc1	inactive: 9.63%	–
CSc1ccc(C(=S)N2CCN(C(c3ccccc3)c3ccccc3)CC2)cc1	inactive: -13%	–
CC(=O)C1=C(O)C(=O)N(c2ccccn2)C1c1ccc(C)cc1 (configuration not stated)	inactive: 1.27%	–
CN(C)S(=O)(=O)c1ccc2c(c1)nc(CCC(=O)NCc1ccc(Cl)cc1)n2C	–	inconclusive: 3.55 µM [inhibitor, full curve, poor fit]
COc1ccc2cc(C(=O)NCC3CCC3)c(C)nc2c1	inactive: 17.9%	–
CN(CCCOc1ccccc1-c1ccccc1)CCCOc1ccccc1-c1ccccc1	–	inconclusive: 31.6 µM [inhibitor, single point]
COC(=O)/C=C/c1ccccc1CN1[C@@H](CC(=O)OC)c2ccccc2S1(=O)=O	–	inconclusive: 28.2 µM [inhibitor, partial curve, poor fit]
CCOc1cc(NC(=S)NCCc2ccccc2)c(OCC)cc1NC(C)=O	–	inconclusive: 3.98 µM [inhibitor, full curve, poor fit]
COc1ccc(C#Cc2c(-c3ccc(OC)cc3)oc3ccc(-c4ccc(OC)cc4)cc23)cc1	–	inconclusive: 39.8 µM [inhibitor, partial curve, poor fit]
CN1/C(=C/C=N/n2cnnc2)C(C)(C)c2ccccc21	inactive: -2.51%	–
NS(=O)(=O)c1ccc(CCNC(=O)CN2CCCCCC2)cc1	–	inconclusive: 112 µM [inhibitor, single point]
CCc1nnc(NC(=O)c2ccc(C)o2)s1	inactive: 0%	–
